A negative result means that nothing was seen under these conditions. For part of these data: At least one verdict was read from the data and is not stated in words by the source. The exact form of at least one protein or probe is not confirmed.

Amino acid sequences for entries named in this document (tags omitted). A change or cut given only in a name is not applied to a line headed by its entry.
UniProt O80982: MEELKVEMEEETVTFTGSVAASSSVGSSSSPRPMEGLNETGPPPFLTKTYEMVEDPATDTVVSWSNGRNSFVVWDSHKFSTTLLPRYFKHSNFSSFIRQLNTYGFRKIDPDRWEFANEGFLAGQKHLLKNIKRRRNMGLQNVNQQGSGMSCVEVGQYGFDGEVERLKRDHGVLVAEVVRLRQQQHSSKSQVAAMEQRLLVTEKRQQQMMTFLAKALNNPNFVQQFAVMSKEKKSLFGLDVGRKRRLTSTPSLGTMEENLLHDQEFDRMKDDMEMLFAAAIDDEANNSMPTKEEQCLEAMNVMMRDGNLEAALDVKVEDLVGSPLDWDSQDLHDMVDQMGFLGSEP
UniProt Q9STM3: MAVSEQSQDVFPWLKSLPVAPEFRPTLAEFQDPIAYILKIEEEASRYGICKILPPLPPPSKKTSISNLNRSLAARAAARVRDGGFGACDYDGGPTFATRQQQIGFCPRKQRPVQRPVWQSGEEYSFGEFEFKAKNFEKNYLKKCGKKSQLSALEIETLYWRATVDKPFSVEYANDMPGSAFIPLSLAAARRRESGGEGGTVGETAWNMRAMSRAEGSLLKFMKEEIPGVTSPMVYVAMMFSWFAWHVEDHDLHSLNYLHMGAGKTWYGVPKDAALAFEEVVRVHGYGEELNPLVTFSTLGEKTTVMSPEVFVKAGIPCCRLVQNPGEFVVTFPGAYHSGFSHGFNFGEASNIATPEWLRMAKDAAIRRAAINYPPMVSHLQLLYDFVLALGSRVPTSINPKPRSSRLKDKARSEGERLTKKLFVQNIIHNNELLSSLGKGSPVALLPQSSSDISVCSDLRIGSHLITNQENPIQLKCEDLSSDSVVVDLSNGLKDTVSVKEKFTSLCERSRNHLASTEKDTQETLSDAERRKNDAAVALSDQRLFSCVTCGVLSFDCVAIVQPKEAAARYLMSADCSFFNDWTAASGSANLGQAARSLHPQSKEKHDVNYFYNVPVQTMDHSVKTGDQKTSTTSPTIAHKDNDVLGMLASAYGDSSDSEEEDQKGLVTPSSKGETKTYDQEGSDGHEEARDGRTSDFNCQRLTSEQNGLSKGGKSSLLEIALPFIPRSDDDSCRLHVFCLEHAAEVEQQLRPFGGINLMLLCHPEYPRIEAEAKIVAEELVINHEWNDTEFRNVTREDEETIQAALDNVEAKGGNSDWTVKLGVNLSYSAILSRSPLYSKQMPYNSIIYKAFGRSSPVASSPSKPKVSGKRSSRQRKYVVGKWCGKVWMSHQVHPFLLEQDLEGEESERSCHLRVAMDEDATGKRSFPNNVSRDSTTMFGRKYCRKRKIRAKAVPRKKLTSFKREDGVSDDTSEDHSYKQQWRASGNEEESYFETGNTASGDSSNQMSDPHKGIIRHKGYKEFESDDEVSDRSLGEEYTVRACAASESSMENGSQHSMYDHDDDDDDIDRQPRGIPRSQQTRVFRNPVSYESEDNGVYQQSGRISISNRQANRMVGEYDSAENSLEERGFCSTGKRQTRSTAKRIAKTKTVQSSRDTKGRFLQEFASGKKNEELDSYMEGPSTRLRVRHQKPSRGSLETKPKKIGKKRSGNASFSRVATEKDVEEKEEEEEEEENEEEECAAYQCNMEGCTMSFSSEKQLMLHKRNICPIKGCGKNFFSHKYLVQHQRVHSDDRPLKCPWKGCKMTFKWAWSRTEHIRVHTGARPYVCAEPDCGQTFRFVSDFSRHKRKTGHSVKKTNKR

The first data set deals with His-HSFA2 (UniProt O80982). Kind of data set: EMSA. To be noted: HSFA2: 10 mM Tris-HCl pH 7.6, 25 mM KCl, 2.5 mM MgCl2, 1 mM EDTA, 1 mM DTT, 10% glycerol, 25 C 30 min, REF6C: 25 mM Tris-HCl pH 8.0, 100 mM NaCl, recombinant protein, residues 1-345, label: Cy5 end.
Take “AGCCAGTGGCGATAAGCGTCGTTTTTTTCGAGGAAAAGTGAATGCTTATCGCCACTGGCT (double strand) [REF6-HSE-P2]”: the binding result is “no binding”. On the same count and under the same terms, with “AGCCAGTGGCGATAAGGAAGGTCCTTCACACGCGCCTCCCTTATCGCCACTGGCT (double strand) [SGIP1-HSE-P3]” the entry was “binds”. The same measure, in the same setting: with “AGCCAGTGGCGATAAGAAATTCTTGTGGAACATGAACTTATCGCCACTGGCT (double strand) [SGIP1-HSE-P1]” the entry was “binds”; with “AGCCAGTGGCGATAAGATTGGAATTCCCAAACGCGACTTATCGCCACTGGCT (double strand) [SGIP1-HSE-P2]”, “binds”.

A further data set addresses GST-REF6C (UniProt Q9STM3). As to the kind of experiment: EMSA. The following applies: 1 uM ZnSO4, HSFA2: 10 mM Tris-HCl pH 7.6, 25 mM KCl, 2.5 mM MgCl2, 1 mM EDTA, 1 mM DTT, 10% glycerol, 25 C 30 min, REF6C: 25 mM Tris-HCl pH 8.0, 100 mM NaCl, recombinant protein, protein details: GST, label: Cy5 end. A general note: In EMSA bound probe runs differently from free probe, usually more slowly.
Turning to “AGCCAGTGGCGATAAGCTCTGTTCAATCCTCTGTTTCTTATCGCCACTGGCT (double strand) [HSFA2-REF6-WT]”, the binding result was “binds”.

For the sequence “AGCCAGTGGCGATAAGCTAAGTTCAATCCTAAGTTTCTTATCGCCACTGGCT (double strand) [HSFA2-REF6-mu]”, the binding result is recorded as “no binding”.

The record behind these values is PMC6796840.
